These are yes or no findings as the source states them, for the method shown. For some assays here: A result given as binding can be weak or reduced; the word gives no strength. Sequences can lack the tags named with a protein.
Assays:
Assay in all cases: native gel or EMSA; native PAGE; proteins at 5 μM in HBS-200 with an additional 10% glycerol, 30 min on ice; 6% polyacrylamide, tris-glycine, run 2 h, Coomassie stained; both purified
[1] = molecular target: Tof1–Csm3 with Tof1 K51C (Chaetomium thermophilum)
[2] = molecular target: Tof1–Csm3 Basic Patch-mutated 1 (BP1; Tof1 K50A/R54A/R98A/R173A) (Chaetomium thermophilum)
[3] = molecular target: Tof1(1–900)ΔL1,3–Csm3 (Chaetomium thermophilum)

Row | Binder | binding [1] | binding [2] | binding [3]
1 | Mrc1-mid (maltose binding protein-fused Mrc1 401–800) (domain or fragment, UniProt P25588 401-800) KCITLDLDSDSDEYGDDDMDSIKLSKDESVLPISQLSKATILNLKARLSKQNQKLSQRPNKSKDPKVDHNVLLNTLRKASRKQILDHQKEVIETKGLKLEDMAKEKEIVENLLEQEILRNKRIRQKEKRREKLEENDFQLNAHDSGSDSGSESSGFALSGNEIADYESSGSENDNRRESDSEKEDDEIILKQKKSHHVKHIINESDSDTEVEAKPKEKADESLPKRIAINLGHYGDNIGEDTDKFQETNVLDTQNIEEVMAERNTIENEVKDDVYVNEEADEAIRRQLIDKEKLQLKQKEKEHEAKIKELKKRGVTNFFEMEAEESEDEWHGIGGADGEGSDDYDSDLEKMIDDYSKNNFNPHEIREMLAAENKEMDIKMINKILYDIKNGGFRNKRAKN | binds | no binding (tested: 5 μM) | binds
2 | Mrc1-N (maltose binding protein-fused Mrc1 1–400) (domain or fragment, UniProt P25588 1-400) MDDALHALSSLTAKKRTTTYKKVAVPILDENDNTNGNGPNDIDNPPELTGNGFLFANATLNRVKNRLEGKKAPEQNHNNGKDRSENSLPTQLISNLYDGGEELEKSEVKDNSYSEKNVSSSFTQTQRIPVSIQQDKVFNVPIHSVNDGKPTQLIKEDGLVNETSQALKTPLTTGRPGATQRIDSSGATSQTQPIKSIEPQSQIITTSSNHSNALSPKIPIIPTELIGTSPLFQSIQNRGPDTQMDVPPQTAHDEDKTQAIGIPQATHQEQKTQIDTVAQTLQDEVPHTLKIREIQSELASEDSKREKARNVEYKKPQKPIPTKKFFSKESFLADFDDSSSNEDDDIKLENAHPKPVQNDDELHENKSVELNLTDETRINEKRVPLLSSYANNLKREIDSS | – | – | no binding (tested: 5 μM)
3 | Mrc1-C (maltose binding protein-fused Mrc1 801–1096) (domain or fragment, UniProt P25588 801-1096) SLELELSDDDEDDVLQQYRLKRRELMRKRRLEIGDDAKLVKNPKSSAFFESMVEDIIEYKNPFGAEEEYNLDITSTATDLDTQDNSINVGDNTGNNEQKPVDQKNKKVIISEDFVQKSLSFLKSNNYEDFETDKELSRIQHGNDEAIEDLYTLKQNSSIKSFTNSQTDSTTSKTVNTIIDLEKRPEDEDEVENGDTSLVGVFKHPSIIKSFASRTDINDKFKEGNKTVKILKSYKTVGSSKASITYMGKTRKLIAPKRKTEGSHRYHHDHHNKKMKMKTKTKSNKLFESGQDSFDN | – | – | no binding (tested: 5 μM)

From article PMC7337906
